Values of other authors in US20050037450A1, “Novel targets for lithium therapy” (Duke University, priority 2002, published 2005).
At least one compound was matched to its structure with a doubt left.

How the values were obtained:
[1] = test system: Fbpase; conditions: cited from earlier work
[2] = target: T1, HAL2p/MET22p (Saccharomyces cerevisiae, UniProt P32179); conditions: cited from earlier work
T1 sequence (P32179 1-357): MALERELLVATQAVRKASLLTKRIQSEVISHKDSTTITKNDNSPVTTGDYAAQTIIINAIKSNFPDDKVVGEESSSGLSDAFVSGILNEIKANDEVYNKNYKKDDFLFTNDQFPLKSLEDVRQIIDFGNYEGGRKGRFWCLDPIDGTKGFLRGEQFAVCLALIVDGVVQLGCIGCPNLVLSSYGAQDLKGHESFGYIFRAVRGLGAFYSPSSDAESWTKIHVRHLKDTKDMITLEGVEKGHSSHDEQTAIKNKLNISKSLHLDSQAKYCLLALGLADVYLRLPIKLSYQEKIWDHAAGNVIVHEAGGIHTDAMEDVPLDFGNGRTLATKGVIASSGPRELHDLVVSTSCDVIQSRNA

[3] = target: T2, 1ptase D54A (aspartate to alanine) (Bos taurus, UniProt P21327, D54A); conditions: Asp-54 mutated to alanine; cited from earlier work
T2 sequence (P21327 1-400 D54A): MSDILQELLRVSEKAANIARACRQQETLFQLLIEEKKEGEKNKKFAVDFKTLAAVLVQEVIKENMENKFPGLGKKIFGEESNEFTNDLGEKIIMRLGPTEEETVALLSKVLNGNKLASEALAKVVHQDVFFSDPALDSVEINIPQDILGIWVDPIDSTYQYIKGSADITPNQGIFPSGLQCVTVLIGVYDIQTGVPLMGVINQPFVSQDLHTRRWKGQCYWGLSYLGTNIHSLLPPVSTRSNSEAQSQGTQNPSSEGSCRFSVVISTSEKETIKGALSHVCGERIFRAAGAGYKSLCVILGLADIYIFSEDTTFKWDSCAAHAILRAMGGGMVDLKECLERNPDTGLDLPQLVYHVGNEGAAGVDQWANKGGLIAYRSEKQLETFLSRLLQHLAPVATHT

Compound: [Li] [lithium]
- Lithium concentration to which enzyme is sensitive [1]: sub-millimolar
- Lithium concentration to which enzyme is sensitive [2]: sub-millimolar
- Affinity for lithium relative to wild type enzyme [3]: close to three orders of magnitude lower
